{"sequences": {"note": "Protein sequences, listed by entry. Tags and fused reporters are not part of them. Lines headed by an entry give the natural chain unless they say otherwise; changes in a name come on top.", "UniProt Q12809": "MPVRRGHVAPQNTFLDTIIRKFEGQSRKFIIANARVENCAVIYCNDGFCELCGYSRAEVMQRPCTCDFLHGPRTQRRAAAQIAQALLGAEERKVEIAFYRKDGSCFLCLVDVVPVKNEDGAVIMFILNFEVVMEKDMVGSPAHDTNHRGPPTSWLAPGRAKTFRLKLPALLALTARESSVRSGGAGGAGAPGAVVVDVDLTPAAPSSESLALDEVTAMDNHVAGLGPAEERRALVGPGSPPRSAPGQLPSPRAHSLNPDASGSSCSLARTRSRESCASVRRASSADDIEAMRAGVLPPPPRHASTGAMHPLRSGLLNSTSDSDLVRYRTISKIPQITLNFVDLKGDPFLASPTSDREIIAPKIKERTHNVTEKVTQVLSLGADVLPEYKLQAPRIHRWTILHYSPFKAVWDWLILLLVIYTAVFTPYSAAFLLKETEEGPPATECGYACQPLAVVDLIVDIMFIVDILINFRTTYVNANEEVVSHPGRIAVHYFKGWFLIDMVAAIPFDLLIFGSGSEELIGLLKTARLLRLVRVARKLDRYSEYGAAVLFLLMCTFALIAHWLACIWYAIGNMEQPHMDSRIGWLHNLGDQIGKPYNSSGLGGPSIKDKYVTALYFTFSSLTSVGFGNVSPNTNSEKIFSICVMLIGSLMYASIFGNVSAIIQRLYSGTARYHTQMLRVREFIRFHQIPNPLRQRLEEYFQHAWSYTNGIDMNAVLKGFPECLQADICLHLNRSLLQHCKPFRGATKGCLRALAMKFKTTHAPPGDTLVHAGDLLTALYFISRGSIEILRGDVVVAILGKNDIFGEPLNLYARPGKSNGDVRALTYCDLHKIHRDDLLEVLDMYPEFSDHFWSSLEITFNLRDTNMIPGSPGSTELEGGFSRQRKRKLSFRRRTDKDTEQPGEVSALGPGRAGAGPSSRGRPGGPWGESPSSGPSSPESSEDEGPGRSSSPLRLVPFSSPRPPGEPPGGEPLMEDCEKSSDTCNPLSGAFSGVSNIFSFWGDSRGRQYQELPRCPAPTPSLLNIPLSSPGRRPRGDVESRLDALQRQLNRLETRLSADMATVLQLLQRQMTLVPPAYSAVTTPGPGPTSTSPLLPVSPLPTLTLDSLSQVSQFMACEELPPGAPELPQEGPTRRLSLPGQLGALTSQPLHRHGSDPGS"}, "source": "ChEMBL document CHEMBL1139598", "about": "“A discriminant model constructed by the support vector machine method for HERG potassium channel inhibitors” (Bioorg Med Chem Lett, 2005)", "molecular_target": "Voltage-gated inwardly rectifying potassium channel KCNH2 (Homo sapiens, UniProt Q12809)", "assay": "Inhibitory concentration against potassium channel HERG"}
{"smiles": "CO[C@]12CC[C@@]3(C[C@@H]1[C@](C)(O)C(C)(C)C)[C@H]1Cc4ccc(O)c5c4[C@@]3(CCN1CC1CC1)[C@H]2O5", "note": "[BUPRENORPHINE]", "values": [{"measurement": "IC50", "value": 7.59, "unit": "µM"}]}
{"smiles": "CCOC(=O)C1(c2ccccc2)CCN(C)CC1", "note": "[MEPERIDINE]", "values": [{"measurement": "IC50", "value": 0.324, "unit": "µM"}]}
